Measurements reported in article PMC5449769.
These are yes or no findings as the source states them, for the method shown. Some binding calls cover weakened binding; strength is not graded here. Tags and fused reporters may be left off the sequences shown.

Protein sequences, listed by entry. Tags and fused reporters are not part of them. Residues count along the entry.
UniProt P02787, residues 20-698: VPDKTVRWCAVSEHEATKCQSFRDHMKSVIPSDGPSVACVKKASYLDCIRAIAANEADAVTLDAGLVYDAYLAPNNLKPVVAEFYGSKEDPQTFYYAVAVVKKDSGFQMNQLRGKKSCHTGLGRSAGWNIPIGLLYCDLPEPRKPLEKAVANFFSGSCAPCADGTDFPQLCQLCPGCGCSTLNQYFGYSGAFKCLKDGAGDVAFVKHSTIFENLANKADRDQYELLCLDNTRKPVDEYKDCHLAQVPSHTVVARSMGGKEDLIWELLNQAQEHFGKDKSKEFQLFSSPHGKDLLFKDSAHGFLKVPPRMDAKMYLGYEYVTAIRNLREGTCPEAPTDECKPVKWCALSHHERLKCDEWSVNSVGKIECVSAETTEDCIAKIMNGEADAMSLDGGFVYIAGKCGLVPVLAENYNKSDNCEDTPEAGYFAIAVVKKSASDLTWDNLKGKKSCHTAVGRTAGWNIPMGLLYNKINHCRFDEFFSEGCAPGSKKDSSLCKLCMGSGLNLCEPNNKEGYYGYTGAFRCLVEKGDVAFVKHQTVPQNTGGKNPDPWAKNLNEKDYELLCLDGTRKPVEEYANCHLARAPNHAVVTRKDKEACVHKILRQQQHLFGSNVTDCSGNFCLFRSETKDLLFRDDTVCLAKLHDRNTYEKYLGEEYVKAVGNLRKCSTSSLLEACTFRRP

Legend:
[1] = molecular target: T1, Moraxella catarrhalis TbpB without the FLAG-tag (Moraxella catarrhalis strain O35E) (UniProt P0DTW7); assay: flow cytometry on cells; E. coli C43 (DE3) cells expressing TbpB with or without its neighbouring Slam (auto-induction 18 h 37°C; for H. influenzae TbpB 1 mM IPTG, 18°C, 16-18 h), washed in PBS with 1 mM MgCl2, incubated with biotinylated human transferrin (0.05 mg/ml) 1 h at 4°C, then R-PE streptavidin; fixed in 2% formaldehyde; mean fluorescence intensity; only the binder purified
T1 sequence: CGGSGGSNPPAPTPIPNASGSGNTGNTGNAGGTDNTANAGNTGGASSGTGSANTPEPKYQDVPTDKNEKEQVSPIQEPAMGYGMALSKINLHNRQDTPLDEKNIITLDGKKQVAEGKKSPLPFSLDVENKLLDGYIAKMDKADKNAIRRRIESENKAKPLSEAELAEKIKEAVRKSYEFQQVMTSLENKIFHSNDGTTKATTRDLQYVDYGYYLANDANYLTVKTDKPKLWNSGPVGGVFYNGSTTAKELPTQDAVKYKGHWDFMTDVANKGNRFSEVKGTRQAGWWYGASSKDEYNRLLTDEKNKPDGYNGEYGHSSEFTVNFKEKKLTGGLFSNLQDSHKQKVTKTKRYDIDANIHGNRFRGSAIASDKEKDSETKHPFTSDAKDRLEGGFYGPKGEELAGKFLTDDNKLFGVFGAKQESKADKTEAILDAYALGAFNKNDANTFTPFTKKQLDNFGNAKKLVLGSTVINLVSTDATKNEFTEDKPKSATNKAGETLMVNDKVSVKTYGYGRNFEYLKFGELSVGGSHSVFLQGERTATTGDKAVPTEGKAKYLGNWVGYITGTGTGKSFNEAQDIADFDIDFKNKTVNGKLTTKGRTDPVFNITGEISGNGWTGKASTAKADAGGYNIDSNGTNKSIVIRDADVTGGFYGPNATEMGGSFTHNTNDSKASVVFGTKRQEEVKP

[2] = molecular target: T2, Moraxella catarrhalis TbpB-flag (Moraxella catarrhalis strain O35E) (UniProt P0DTW7); assay: as above
T2 sequence: T1 sequence

For “biotinylated human transferrin (from UniProt P02787 20-698)”, the binding [1] was “binds” and the binding [2] was “binds”.
